Values of other authors, collected in patent US20040006070A1, “Intraspinal continuous infusion of midazolam hydrochloride for the treatment of pain” (priority 2002, published 2004).

Settings: in vivo; cited from earlier work

For `CN1CC[C@]23c4c5ccc(O)c4O[C@H]2[C@@H](O)C=C[C@H]3[C@H]1C5.O=S(=O)(O)O` [morphine, morphine sulfate], the “potency of intrathecal infusion relative to intravenous infusion” value is listed as “approximately 20 times”.
